Values of other authors as cited in patent US20240148879A1, “GLP-1R, GIP-R AND/OR GCGR AGONISTS, FORMULATIONS, AND METHODS OF USE” (Spitfire Pharma LLC, priority 2021, published 2024).
At least one compound was matched to its structure with a doubt left.

Assays:
[1] = over 26 weeks of administration
[2] = NASH patients, recent clinical trial

CCCCCCCCCCCCCCCC(=O)N[C@@H](CCC(=O)NCCCC[C@H](NC(=O)[C@H](C)NC(=O)[C@H](C)NC(=O)[C@H](CCC(N)=O)NC(=O)CNC(=O)[C@H](CCC(=O)O)NC(=O)[C@H](CC(C)C)NC(=O)[C@H](Cc1ccc(O)cc1)NC(=O)[C@H](CO)NC(=O)[C@H](CO)NC(=O)[C@@H](NC(=O)[C@H](CC(=O)O)NC(=O)[C@H](CO)NC(=O)[C@@H](NC(=O)[C@H](Cc1ccccc1)NC(=O)[C@@H](NC(=O)CNC(=O)[C@H](CCC(=O)O)NC(=O)[C@H](C)NC(=O)[C@@H](N)Cc1cnc[nH]1)[C@@H](C)O)[C@@H](C)O)C(C)C)C(=O)N[C@@H](CCC(=O)O)C(=O)N[C@@H](Cc1ccccc1)C(=O)N[C@H](C(=O)N[C@@H](C)C(=O)N[C@@H](Cc1c[nH]c2ccccc12)C(=O)N[C@@H](CC(C)C)C(=O)N[C@H](C(=O)N[C@@H](CCCNC(=N)N)C(=O)NCC(=O)N[C@@H](CCCNC(=N)N)C(=O)NCC(=O)O)C(C)C)[C@@H](C)CC)C(=O)O [liraglutide]
degree of weight loss [1]: 5.5% | body weight lost [2]: 5.5% | effect on NASH [2]: resolution of NASH
